# PubChem BioAssay AID1259405, NCATS | 2018
# Test: 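Silenced genes that increase secreted GFP made by CHO cells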 (primary screen)
# Cell system: Chinese hamster CHO-K1 ovary cells with stable secreted eGFP expression
# Reagents: single siRNA against mouse genes, 0.8 pmol siRNA per well (2 µl of 400 nM stock)
# Duration: 3 days
# Detection: 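Per-well intracellular GFP measured by laser scanning cytometry, plus viability from ATP luminescence, each relative to plate median of non-targeting control wells, in %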
# Reading the numbers: GFP, % of control: higher = more GFP per well, higher productivity; viability (ATP), % of control: higher = more viable cells (more ATP)
# Hit rule: 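a knock-down is called active if GFP reaches 120% or more of non-targeting control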
# This is an unselected part of about 50,000 deposited reagents. About 4,000 of them (8%) were called active. 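Mouse siRNA library applied to hamster cells; one well for each siRNA.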 The numbers tell different reagents against one gene apart. Reagent sequences are not shown.
Target gene,reagent no.,"GFP, % of control","viability (ATP), % of control",outcome
Tex11 (GeneID 83558),1,44,54.2,inactive
Tex11 (GeneID 83558),2,73,89.8,inactive
Tex11 (GeneID 83558),3,86.1,101,inactive
Lonrf2 (GeneID 381338),1,74.4,53.2,inactive
Lonrf2 (GeneID 381338),2,57.4,52.4,inactive
Lonrf2 (GeneID 381338),3,71.2,68.4,inactive
Aph1b (GeneID 208117),1,73.7,77.9,inactive
Aph1b (GeneID 208117),2,73.2,94.4,inactive
Pkn3 (GeneID 263803),1,71.9,67.6,inactive
Pkn3 (GeneID 263803),2,92.5,75.4,inactive
Pkn3 (GeneID 263803),3,102,125,inactive
Or2b6 (GeneID 218066),1,54.6,47.6,inactive
Or2b6 (GeneID 218066),2,36.6,35.6,inactive
Or2b6 (GeneID 218066),3,90.3,106,inactive
Nubp1 (GeneID 26425),1,79.9,48.4,inactive
Nubp1 (GeneID 26425),2,90,81.2,inactive
Nubp1 (GeneID 26425),3,44.8,53.8,inactive
Or8b9 (GeneID 258412),1,101,44.2,inactive
Or8b9 (GeneID 258412),2,25.6,9.57,inactive
Or8b9 (GeneID 258412),3,91.7,106,inactive

Part of the list above, set out differently.
Pkn3 (GeneID 263803) #3
- GFP, % of control: 102
- viability (ATP), % of control: 125
- outcome: inactive

Or2b6 (GeneID 218066) #1
- GFP, % of control: 54.6
- viability (ATP), % of control: 47.6
- outcome: inactive

Or2b6 (GeneID 218066) #2
- GFP, % of control: 36.6
- viability (ATP), % of control: 35.6
- outcome: inactive

Or2b6 (GeneID 218066) #3
- GFP, % of control: 90.3
- viability (ATP), % of control: 106
- outcome: inactive

Nubp1 (GeneID 26425) #1
- GFP, % of control: 79.9
- viability (ATP), % of control: 48.4
- outcome: inactive

Nubp1 (GeneID 26425) #2
- GFP, % of control: 90
- viability (ATP), % of control: 81.2
- outcome: inactive

Next records:
Target gene,reagent no.,"GFP, % of control","viability (ATP), % of control",outcome
Slc25a36 (GeneID 192287),1,128,143,active
Slc25a36 (GeneID 192287),2,92.6,90.3,inactive
Slc25a36 (GeneID 192287),3,77.9,63.4,inactive
Pak3 (GeneID 18481),1,34.1,48.4,inactive
Memo1 (GeneID 76890),1,83,96.5,inactive
Memo1 (GeneID 76890),2,70.6,91.2,inactive
Memo1 (GeneID 76890),3,85.4,58.6,inactive
Aifm1 (GeneID 26926),1,111,91.7,inactive
Aifm1 (GeneID 26926),2,83.7,57.9,inactive
Proser3 (GeneID 333193),1,110,64.7,inactive
Proser3 (GeneID 333193),2,149,94,active
Proser3 (GeneID 333193),3,83.9,52.1,inactive
Taf9b (GeneID 407786),1,74.8,61.8,inactive
Taf9b (GeneID 407786),2,74.8,61.8,inactive
